Source: publication PMC10888192, “New Derivatives of 1-(3-Methyl-1-Benzofuran-2-yl)Ethan-1-one: Synthesis and Preliminary Studies of Biological Activity” (International Journal of Molecular Sciences, 2024)

Test system: K562 cells (human chronic myelogenous leukemia)
Experiment: MTT cytotoxicity assay, K562
Type: cell-based
Settings: ratio of IC50 values in HaCat to cancer cells (K562)
Experimental: The cell viability was analyzed at the following six concentrations of compounds: 5, 10, 20, 40, 60 and 100 µM after 72 h incubation.
Additionally, to determine the safety profile of the tested compounds, the therapeutic index (TI) (the ratio of IC50 value in HaCaT to cancer cells K562) was calculated. […] The goal of conducting the MTT assay in this research was to select benzofuran derivatives, which manage to reduce viability of cancer cells while exposing mild effects on normal healthy cells.
The cytotoxicity was evaluated by MTT reduction assay, which measures mitochondrial respiratory function. The test was performed based on the method described by Präbst et al.. Cells (1 × 10^4/well), in logarithmic phase, were seeded into 96-well plates in appropriate medium. After 24 h, cells were exposed to test compounds. […] After 72 h, the medium with the compounds was completely removed and MTT solution (0.5 mg/mL) in fresh medium without serum was added to each well. Plates with cells were incubated for 4 h at 37 °C in the dark. Then, MTT solution was removed and replenished with 0.1 mL DMSO: isopropanol (1:1) mixture to dissolve the generated formazan crystals. The optical density was measured with a […] GO (ThermoScientific) microplate reader at 570 nm. Replicates of three wells for each dosage, including vehicle control, were analyzed for each experiment. The experiments were conducted in triplicate. Control cells which were only treated with respective medium were used as the 100% viability value. […] Additionally, to determine the safety profile of the test compounds, therapeutic indexes (TI) (the ratio of IC50 values in HaCat to cancer cells (K562, PC3, SW620, Cack-1)) were calculated.

Going from `COc1cc(OC)c2c(C)c(C(C)=O)oc2c1` [Compound 2, 1-(4,6-Dimethoxy-3-Methyl-1-Benzofuran-2-yl)Ethanone] to `COc1cc2oc(C(C)=O)c(CBr)c2c(OC)c1Br` [Compound 7, 1-[5-Bromo-3-(Bromomethyl)-4,6-Dimethoxy-1-Benzofuran-2-yl]Ethanone], the “Therapeutic index (TI)” value falls from 1.853 to 0.114.

Going from `CCOc1ccc2c(C)c(C(C)=O)oc2c1` [Compound 4, 1-(6-Ethoxy-3-Methyl-1-Benzofuran-2-yl)Ethanone] to `CCOc1ccc2c(CBr)c(C(C)=O)oc2c1` [Compound 9, 1-[3-(Bromomethyl)-6-Ethoxy-1-Benzofuran-2-yl]Ethanone], the “Therapeutic index (TI)” value rises from 0.925 to 1.583.

In the case of `COc1ccc2oc(C(C)=O)c(CBr)c2c1` [Compound 5, 1-[3-(Bromomethyl)-5-Methoxy-1-Benzofuran-2-yl]Ethanone], the “Therapeutic index (TI)” value is reported as 1.450.
